The record followed here is the supplement of paper PMC7666118.

Amino acid sequences for entries named in this document (tags omitted). A change or cut given only in a name is not applied to a line headed by its entry.
UniProt O15162: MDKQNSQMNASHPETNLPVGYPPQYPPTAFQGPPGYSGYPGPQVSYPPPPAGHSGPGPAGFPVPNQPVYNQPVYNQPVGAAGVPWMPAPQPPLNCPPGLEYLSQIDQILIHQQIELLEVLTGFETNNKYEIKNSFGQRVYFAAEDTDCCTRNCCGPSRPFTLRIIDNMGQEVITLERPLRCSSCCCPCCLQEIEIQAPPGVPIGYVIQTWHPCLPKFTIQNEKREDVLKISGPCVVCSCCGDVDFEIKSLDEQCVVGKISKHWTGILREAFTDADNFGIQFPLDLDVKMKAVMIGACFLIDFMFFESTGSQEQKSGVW
UniProt Q9NWS0, whole entry: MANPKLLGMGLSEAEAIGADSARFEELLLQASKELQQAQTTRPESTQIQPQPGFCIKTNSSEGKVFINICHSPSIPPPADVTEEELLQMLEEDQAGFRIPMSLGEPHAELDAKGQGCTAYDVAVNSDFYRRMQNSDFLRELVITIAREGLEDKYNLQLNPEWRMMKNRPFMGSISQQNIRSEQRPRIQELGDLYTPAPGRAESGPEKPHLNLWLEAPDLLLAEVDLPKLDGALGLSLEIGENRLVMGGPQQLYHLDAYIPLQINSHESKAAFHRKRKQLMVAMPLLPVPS
UniProt Q13835: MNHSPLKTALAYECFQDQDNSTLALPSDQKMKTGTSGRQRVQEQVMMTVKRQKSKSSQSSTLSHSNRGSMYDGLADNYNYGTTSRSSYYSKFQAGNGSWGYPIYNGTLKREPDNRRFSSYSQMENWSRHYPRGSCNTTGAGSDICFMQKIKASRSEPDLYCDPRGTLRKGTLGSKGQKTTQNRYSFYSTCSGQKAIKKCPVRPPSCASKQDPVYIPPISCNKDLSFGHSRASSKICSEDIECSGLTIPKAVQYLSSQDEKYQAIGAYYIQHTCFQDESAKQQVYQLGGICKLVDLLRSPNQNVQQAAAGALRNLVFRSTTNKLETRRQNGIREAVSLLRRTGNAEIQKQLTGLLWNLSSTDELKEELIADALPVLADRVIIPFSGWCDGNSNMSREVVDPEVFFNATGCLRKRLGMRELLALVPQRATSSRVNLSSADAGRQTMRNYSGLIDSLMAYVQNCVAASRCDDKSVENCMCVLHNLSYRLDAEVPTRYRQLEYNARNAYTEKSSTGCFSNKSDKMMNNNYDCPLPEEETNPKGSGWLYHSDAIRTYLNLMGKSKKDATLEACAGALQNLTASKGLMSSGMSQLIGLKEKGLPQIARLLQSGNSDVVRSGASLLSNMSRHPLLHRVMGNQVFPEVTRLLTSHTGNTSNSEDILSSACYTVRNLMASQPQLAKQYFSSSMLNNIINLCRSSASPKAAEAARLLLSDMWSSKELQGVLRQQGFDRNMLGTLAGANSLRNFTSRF
UniProt P53350, whole entry: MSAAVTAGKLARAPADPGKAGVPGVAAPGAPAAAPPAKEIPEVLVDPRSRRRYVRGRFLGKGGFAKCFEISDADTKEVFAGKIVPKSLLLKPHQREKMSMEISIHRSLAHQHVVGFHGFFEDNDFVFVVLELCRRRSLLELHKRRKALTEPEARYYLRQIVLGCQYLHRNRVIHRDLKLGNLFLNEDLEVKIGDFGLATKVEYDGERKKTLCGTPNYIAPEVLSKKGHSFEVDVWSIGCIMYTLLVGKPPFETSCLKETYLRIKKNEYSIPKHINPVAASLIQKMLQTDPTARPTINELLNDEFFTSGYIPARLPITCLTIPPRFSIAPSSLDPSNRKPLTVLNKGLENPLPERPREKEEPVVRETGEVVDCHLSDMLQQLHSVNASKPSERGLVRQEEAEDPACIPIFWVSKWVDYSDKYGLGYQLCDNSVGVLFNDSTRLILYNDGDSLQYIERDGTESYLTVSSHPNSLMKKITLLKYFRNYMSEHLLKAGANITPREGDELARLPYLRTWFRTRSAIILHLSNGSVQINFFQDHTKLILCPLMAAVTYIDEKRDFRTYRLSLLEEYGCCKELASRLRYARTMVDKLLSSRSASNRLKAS
UniProt O43924: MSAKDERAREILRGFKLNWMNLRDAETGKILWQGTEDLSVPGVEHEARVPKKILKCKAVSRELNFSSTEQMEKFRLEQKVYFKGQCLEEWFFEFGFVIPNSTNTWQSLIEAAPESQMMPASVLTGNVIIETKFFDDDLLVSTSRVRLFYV
UniProt Q00169: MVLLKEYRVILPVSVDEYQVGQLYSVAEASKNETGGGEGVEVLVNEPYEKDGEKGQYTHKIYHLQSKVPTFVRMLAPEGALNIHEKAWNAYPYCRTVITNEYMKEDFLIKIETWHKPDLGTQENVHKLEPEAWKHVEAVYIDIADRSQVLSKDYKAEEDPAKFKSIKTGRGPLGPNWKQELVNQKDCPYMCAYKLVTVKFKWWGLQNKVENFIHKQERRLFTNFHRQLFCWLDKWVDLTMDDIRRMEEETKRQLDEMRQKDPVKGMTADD
UniProt Q86TB9: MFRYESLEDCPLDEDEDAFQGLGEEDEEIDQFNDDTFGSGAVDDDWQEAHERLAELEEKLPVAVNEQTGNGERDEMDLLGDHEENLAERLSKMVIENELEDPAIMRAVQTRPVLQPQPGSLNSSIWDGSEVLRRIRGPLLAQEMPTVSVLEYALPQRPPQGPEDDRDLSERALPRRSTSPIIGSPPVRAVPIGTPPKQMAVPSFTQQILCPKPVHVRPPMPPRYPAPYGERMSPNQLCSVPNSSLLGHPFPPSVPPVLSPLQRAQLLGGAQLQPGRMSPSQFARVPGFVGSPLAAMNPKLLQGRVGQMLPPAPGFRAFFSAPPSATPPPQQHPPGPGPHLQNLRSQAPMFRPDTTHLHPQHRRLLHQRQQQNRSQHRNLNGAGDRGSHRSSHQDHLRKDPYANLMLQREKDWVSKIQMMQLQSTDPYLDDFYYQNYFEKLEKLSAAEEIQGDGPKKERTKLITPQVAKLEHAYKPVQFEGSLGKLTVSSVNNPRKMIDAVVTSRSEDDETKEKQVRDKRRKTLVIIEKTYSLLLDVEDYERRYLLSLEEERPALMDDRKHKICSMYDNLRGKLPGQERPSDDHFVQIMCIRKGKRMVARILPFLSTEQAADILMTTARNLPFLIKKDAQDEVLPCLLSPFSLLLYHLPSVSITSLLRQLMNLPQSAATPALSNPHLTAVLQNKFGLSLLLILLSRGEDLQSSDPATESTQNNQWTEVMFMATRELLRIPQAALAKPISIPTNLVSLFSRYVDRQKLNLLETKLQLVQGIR
UniProt Q96E52: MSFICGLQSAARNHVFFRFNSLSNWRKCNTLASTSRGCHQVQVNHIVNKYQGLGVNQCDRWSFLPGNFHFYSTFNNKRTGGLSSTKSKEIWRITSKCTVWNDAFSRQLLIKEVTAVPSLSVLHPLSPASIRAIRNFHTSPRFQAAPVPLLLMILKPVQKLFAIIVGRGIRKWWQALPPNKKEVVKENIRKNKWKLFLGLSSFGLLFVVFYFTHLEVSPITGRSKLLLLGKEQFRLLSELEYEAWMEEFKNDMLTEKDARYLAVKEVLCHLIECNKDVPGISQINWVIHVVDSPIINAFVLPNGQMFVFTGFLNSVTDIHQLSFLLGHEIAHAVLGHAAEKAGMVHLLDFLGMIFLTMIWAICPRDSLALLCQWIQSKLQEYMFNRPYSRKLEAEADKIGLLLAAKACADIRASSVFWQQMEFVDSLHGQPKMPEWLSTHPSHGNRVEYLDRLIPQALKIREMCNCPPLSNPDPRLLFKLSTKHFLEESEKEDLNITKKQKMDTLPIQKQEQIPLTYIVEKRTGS
UniProt P49585: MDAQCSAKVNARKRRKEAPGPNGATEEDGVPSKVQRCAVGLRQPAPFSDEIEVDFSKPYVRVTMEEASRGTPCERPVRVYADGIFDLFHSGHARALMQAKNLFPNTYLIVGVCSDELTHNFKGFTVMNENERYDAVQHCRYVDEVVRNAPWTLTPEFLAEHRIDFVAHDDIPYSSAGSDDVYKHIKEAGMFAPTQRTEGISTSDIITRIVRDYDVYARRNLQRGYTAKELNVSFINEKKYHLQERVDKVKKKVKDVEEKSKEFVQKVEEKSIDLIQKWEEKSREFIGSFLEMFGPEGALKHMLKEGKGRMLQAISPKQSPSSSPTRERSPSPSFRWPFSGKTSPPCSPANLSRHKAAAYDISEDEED
UniProt Q8TEQ8: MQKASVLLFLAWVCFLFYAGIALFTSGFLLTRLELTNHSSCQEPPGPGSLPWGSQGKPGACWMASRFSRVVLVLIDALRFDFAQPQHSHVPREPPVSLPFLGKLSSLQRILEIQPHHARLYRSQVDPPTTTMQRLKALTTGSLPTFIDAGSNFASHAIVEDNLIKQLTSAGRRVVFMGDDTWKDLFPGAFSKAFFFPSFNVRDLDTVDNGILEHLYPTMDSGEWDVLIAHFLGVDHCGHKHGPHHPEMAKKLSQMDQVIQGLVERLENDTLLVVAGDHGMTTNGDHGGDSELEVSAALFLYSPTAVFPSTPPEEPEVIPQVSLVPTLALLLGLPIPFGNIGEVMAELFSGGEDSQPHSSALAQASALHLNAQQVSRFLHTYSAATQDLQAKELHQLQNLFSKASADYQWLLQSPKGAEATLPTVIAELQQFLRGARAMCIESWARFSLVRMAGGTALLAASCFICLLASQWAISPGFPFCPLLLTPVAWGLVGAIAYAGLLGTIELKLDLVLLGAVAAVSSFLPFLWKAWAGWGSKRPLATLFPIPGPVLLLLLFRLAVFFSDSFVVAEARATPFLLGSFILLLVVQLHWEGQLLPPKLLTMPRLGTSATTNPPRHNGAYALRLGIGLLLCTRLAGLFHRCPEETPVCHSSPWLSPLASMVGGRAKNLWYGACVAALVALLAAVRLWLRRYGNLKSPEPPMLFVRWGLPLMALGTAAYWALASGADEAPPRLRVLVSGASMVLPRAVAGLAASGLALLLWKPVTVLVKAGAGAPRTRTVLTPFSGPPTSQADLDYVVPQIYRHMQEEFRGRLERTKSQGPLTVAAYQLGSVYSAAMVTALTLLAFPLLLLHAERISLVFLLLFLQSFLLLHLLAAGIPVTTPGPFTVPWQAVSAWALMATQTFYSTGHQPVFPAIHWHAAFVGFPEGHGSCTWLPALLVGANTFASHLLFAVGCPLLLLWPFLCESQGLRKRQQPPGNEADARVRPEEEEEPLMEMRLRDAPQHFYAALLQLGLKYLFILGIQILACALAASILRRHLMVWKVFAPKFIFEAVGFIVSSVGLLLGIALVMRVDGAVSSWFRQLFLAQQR
UniProt O00459, whole entry: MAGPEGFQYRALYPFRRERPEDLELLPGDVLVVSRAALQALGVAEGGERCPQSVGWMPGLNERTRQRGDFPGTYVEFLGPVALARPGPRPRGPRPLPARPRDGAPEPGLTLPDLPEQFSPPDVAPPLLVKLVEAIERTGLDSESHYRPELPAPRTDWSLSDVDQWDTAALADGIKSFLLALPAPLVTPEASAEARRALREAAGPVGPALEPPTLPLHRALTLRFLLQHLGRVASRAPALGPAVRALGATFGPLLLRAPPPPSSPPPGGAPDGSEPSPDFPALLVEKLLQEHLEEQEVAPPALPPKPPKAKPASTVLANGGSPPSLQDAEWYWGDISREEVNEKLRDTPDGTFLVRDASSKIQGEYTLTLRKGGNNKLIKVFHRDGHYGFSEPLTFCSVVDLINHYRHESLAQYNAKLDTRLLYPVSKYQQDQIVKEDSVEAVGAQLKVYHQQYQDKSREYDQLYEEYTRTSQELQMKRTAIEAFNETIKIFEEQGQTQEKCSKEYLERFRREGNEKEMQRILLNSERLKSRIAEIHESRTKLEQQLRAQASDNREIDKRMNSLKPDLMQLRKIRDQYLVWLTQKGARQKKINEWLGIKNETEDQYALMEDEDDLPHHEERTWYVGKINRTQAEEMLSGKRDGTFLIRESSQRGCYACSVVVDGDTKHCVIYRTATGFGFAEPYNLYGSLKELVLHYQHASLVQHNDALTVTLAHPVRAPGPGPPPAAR
UniProt Q96AQ6: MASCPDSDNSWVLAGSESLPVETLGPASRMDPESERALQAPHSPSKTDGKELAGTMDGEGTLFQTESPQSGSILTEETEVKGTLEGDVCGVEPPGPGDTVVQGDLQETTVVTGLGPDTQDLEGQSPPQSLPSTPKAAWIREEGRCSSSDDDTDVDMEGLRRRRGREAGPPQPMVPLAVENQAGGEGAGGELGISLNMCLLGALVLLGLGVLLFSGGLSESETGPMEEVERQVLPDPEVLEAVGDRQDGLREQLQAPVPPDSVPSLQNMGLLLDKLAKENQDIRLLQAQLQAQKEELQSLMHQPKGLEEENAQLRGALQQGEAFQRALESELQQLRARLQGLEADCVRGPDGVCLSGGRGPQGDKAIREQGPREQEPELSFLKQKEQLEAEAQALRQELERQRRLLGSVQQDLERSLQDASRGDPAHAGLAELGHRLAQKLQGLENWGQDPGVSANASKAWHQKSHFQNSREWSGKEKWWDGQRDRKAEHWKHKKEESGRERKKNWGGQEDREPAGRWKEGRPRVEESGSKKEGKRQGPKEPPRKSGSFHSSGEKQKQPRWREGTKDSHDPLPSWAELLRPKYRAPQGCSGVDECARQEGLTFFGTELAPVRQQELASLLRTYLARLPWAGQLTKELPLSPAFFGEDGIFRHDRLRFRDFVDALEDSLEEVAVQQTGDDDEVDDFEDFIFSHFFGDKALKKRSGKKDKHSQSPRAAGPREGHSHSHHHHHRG

Some of the results follow.

Compound in the assay: COc1ccc(Cn2ccc3cc(C)c(C(=O)NO)cc32)cc1
Nature of the assay: dose-dependent thermal stabilisation call (2D-TPP, DLPTP, 10% FDR) (binary (1 = stabilised)); higher = stabilised by the compound. The settings on record: system: HL-60 intact cells; concentration range 0.04-10 µM. Here is the method:
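2D thermal proteome profiling in intact HL-60 cells treated with BRD-3811 (0, 0.04, 0.29, 2, 10 uM) for 90 min at 37 C, then heated 3 min at one of 12 temperatures (42-63.9 C). Soluble protein was quantified by TMT10 MS. The value is the DLPTP call of the paper: dose-dependent thermal stabilisation over all temperatures at 10% FDR (F-test of a dose-response against a flat model); one experiment, one call per tested protein.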
Regarding PGRMC2 (UniProt O15173), the “dose-dependent thermal stabilisation call” value was inactive: 0.
As to PCIF1 (UniProt Q9H4Z3), the “dose-dependent thermal stabilisation call” value is inactive: 0.
As to PLSCR1 (UniProt O15162), the “dose-dependent thermal stabilisation call” value is inactive: 0.
To PJA2 (UniProt O43164) belongs inactive: 0.
The result for PICALM (UniProt Q13492) reads inactive: 0.
Regarding PIH1D1 (UniProt Q9NWS0), the “dose-dependent thermal stabilisation call” value is inactive: 0.
In the case of PARP10 (UniProt Q53GL7), the “dose-dependent thermal stabilisation call” value was inactive: 0.
For the target PDHA1 (UniProt P08559), the “dose-dependent thermal stabilisation call” value is inactive: 0.
In the case of PDCD2L (UniProt Q9BRP1), the “dose-dependent thermal stabilisation call” value is inactive: 0.
The result for PKP1 (UniProt Q13835) reads inactive: 0.
The result for PLK1 (UniProt P53350) reads inactive: 0.
To PARS2 (UniProt Q7L3T8) belongs inactive: 0.
For OSBPL2 (UniProt Q9H1P3), the “dose-dependent thermal stabilisation call” value was inactive: 0.
The result for PDE6D (UniProt O43924) reads inactive: 0; that for PIAS2 (UniProt O75928), inactive: 0; that for OGFOD1 (UniProt Q8N543), inactive: 0.
With PEX3 (UniProt P56589), the “dose-dependent thermal stabilisation call” value was inactive: 0.
To PET112L (UniProt O75879) belongs inactive: 0; to PLXNA1 (UniProt Q9UIW2), inactive: 0.
To PLCB2 (UniProt Q00722) belongs inactive: 0; to PITPNA (UniProt Q00169), inactive: 0.
The result for PATL1 (UniProt Q86TB9) reads inactive: 0.
As to OMA1 (UniProt Q96E52), the “dose-dependent thermal stabilisation call” value was inactive: 0.
With PDPK1 (UniProt O15530), the “dose-dependent thermal stabilisation call” value was inactive: 0.
The result for PDXP (UniProt Q96GD0) reads inactive: 0; that for PANK1 (UniProt Q8TE04), inactive: 0.
To PCYT1A (UniProt P49585) belongs inactive: 0.
Consider PIGO (UniProt Q8TEQ8), for which the “dose-dependent thermal stabilisation call” value is inactive: 0.
PIK3R4 (UniProt Q99570): the “dose-dependent thermal stabilisation call” value is inactive: 0.
For PCF11 (UniProt O94913), the “dose-dependent thermal stabilisation call” value was inactive: 0.
On to PEX14 (UniProt O75381), for which the “dose-dependent thermal stabilisation call” value is inactive: 0.
The result for P2RX4 (UniProt Q99571) reads inactive: 0; that for PAFAH1B1 (UniProt P43034), inactive: 0; that for PEX11B (UniProt O96011), inactive: 0.
As to PIK3R2 (UniProt O00459), the “dose-dependent thermal stabilisation call” value was inactive: 0.
The result for OTUD7B (UniProt Q6GQQ9) reads inactive: 0; that for OSBP (UniProt P22059), inactive: 0; that for PCID2 (UniProt Q5JVF3), inactive: 0.
The result for PBXIP1 (UniProt Q96AQ6) reads inactive: 0; that for PIGA (UniProt P37287), inactive: 0.
